Experimental data taken from PMC9681113.
Results are given in words; binding and its absence hold for the method and conditions named. In cells and extracts the contact can be indirect. A yes stands for co-enrichment or nearness to the bait. Other partners may have been found. Tags and fused reporters may be left off the sequences shown.

T1: GFP-tagged wild-type MAB21L1 (human) (UniProt Q13394)
T1 sequence: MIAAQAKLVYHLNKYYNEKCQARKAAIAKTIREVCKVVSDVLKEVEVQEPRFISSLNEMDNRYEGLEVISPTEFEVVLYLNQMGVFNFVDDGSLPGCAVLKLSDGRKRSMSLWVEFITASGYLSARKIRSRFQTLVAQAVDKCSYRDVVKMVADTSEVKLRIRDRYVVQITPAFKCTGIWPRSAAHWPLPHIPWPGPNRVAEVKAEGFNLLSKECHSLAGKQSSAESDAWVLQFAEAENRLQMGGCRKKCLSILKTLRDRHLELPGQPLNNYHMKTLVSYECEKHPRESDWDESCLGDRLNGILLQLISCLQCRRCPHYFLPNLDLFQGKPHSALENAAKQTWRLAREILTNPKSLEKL

T2: GFP-tagged MAB21L1 Arg51Leu (human) (UniProt Q13394)
T2 sequence: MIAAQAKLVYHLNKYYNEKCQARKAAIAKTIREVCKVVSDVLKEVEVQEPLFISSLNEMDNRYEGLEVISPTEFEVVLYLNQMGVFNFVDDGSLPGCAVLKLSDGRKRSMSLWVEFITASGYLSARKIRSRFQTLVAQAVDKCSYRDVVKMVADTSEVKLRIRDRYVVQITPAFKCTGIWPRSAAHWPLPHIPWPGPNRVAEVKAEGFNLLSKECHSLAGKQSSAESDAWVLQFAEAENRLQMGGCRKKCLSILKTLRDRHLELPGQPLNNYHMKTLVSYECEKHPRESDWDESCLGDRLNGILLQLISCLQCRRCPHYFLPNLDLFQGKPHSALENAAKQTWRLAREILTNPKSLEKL

T3: GFP-tagged MAB21L1 Arg51Gln (human) (UniProt Q13394)
T3 sequence: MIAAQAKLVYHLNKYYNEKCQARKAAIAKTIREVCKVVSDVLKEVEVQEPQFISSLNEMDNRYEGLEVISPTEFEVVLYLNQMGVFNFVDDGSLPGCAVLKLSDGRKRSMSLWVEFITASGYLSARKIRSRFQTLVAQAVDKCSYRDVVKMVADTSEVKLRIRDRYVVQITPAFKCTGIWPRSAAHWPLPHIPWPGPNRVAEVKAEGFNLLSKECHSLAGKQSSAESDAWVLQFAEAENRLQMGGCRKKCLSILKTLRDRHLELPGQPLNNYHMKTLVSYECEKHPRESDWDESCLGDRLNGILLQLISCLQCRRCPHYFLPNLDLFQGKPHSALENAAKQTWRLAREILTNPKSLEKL


Columns and labels:
Test in all cases: affinity purification with mass spectrometry; GFP pulldown with GFP Tag Immunomagnetic Beads from lysates of HEK-293 Flp-In T-REx cells expressing EGFP, EGFP-MAB21L1 or mutant EGFP-MAB21L1 after 12 hrs of 1 μg/ml tetracycline; three biological replicates; MaxQuant
[1] = biological target: T1, GFP-tagged wild-type MAB21L1 (human)
[2] = biological target: T2, GFP-tagged MAB21L1 Arg51Leu (human)
[3] = biological target: T3, GFP-tagged MAB21L1 Arg51Gln (human)

binding [1]	binding [2]	binding [3]	Binder
binds	binds	binds	SUGT1 (protein, UniProt Q9Y2Z0 1-365) MAAAAAGTATSQRFFQSFSDALIDEDPQAALEELTKALEQKPDDAQYYCQRAYCHILLGNYCVAVADAKKSLELNPNNSTAMLRKGICEYHEKNYAAALETFTEGQKLDIETGFHRVGQAGLQLLTSSDPPALDSQSAGITGADANFSVWIKRCQEAQNGSESEVWTHQSKIKYDWYQTESQVVITLMIKNVQKNDVNVEFSEKELSALVKLPSGEDYNLKLELLHPIIPEQSTFKVLSTKIEIKLKKPEAVRWEKLEGQGDVPTPKQFVADVKNLYPSSSPYTRNWDKLVGEIKEEEKNEKLEGDAALNRLFQQIYSDGSDEVKRAMNKSFMESGGTVLSTNWSDVGKRKVEINPPDDMEWKKY
binds	binds	binds	ZSCAN18 (protein, UniProt Q8TBC5 1-510) MLPLEKAFASPRSSPAPPDLPTPGSAAGVQQEEPETIPERTPADLEFSRLRFREFVYQEAAGPHQTLARLHELCRQWLMPEARSKEQMLELLVLEQFLGILPDKVRPWVVAQYPESCKKAASLVEGLADVLEEPGMLLGSPAGSSSILSDGVYERHMDPLLLPGELASPSQALGAGEIPAPSETPWLSPDPLFLEQRRVREAKTEEDGPANTEQKLKSFPEDPQHLGEWGHLDPAEENLKSYRKLLLWGYQLSQPDAASRLDTEELRLVERDPQGSSLPEGGRRQESAGCACEEAAPAGVLPELPTEAPPGDALADPPSGTTEEEEEQPGKAPDPQDPQDAESDSATGSQRQSVIQQPAPDRGTAKLGTKRPHPEDGDGQSLEGVSSSGDSAGLEAGQGPGADEPGLSRGKPYACGECGEAFAWLSHLMEHHSSHGGRKRYACQGCWKTFHFSLALAEHQKTHEKEKSYALGGARGPQPSTREAQAGARAGGPPESVEGEAPPAPPEAQR

Further lines, the binder ahead of its results:

Binder	binding [1]	binding [2]	binding [3]
PBX3 (protein, UniProt P40426 1-434) MDDQSRMLQTLAGVNLAGHSVQGGMALPPPPHGHEGADGDGRKQDIGDILHQIMTITDQSLDEAQAKKHALNCHRMKPALFSVLCEIKEKTGLSIRGAQEEDPPDPQLMRLDNMLLAEGVSGPEKGGGSAAAAAAAAASGGSSDNSIEHSDYRAKLTQIRQIYHTELEKYEQACNEFTTHVMNLLREQSRTRPISPKEIERMVGIIHRKFSSIQMQLKQSTCEAVMILRSRFLDARRKRRNFSKQATEILNEYFYSHLSNPYPSEEAKEELAKKCSITVSQVSNWFGNKRIRYKKNIGKFQEEANLYAAKTAVTAAHAVAAAVQNNQTNSPTTPNSGSSGSFNLPNSGDMFMNMQSLNGDSYQGSQVGANVQSQVDTLRHVINQTGGYSDGLGGNSLYSPHNLNANGGWQDATTPSSVTSPTEGPGSVHSDTSN	binds	binds	binds
MEIS2 (protein, UniProt O14770 1-477) MAQRYDELPHYGGMDGVGVPASMYGDPHAPRPIPPVHHLNHGPPLHATQHYGAHAPHPNVMPASMGSAVNDALKRDKDAIYGHPLFPLLALVFEKCELATCTPREPGVAGGDVCSSDSFNEDIAVFAKQVRAEKPLFSSNPELDNLMIQAIQVLRFHLLELEKVHELCDNFCHRYISCLKGKMPIDLVIDERDGSSKSDHEELSGSSTNLADHNPSSWRDHDDATSTHSAGTPGPSSGGHASQSGDNSSEQGDGLDNSVASPGTGDDDDPDKDKKRQKKRGIFPKVATNIMRAWLFQHLTHPYPSEEQKKQLAQDTGLTILQVNNWFINARRRIVQPMIDQSNRAGFLLDPSVSQGAAYSPEGQPMGSFVLDGQQHMGIRPAGLQSMPGDYVSQGGPMGMSMAQPSYTPPQMTPHPTQLRHGPPMHSYLPSHPHHPAMMMHGGPPTHPGMTMSAQSPTMLNSVDPNVGGQVMDIHAQ	binds	binds	binds
POP1 (protein, UniProt Q99575 1-1024) MSNAKERKHAKKMRNQPTNVTLSSGFVADRGVKHHSGGEKPFQAQKQEPHPGTSRQRQTRVNPHSLPDPEVNEQSSSKGMFRKKGGWKAGPEGTSQEIPKYITASTFAQARAAEISAMLKAVTQKSSNSLVFQTLPRHMRRRAMSHNVKRLPRRLQEIAQKEAEKAVHQKKEHSKNKCHKARRCHMNRTLEFNRRQKKNIWLETHIWHAKRFHMVKKWGYCLGERPTVKSHRACYRAMTNRCLLQDLSYYCCLELKGKEEEILKALSGMCNIDTGLTFAAVHCLSGKRQGSLVLYRVNKYPREMLGPVTFIWKSQRTPGDPSESRQLWIWLHPTLKQDILEEIKAACQCVEPIKSAVCIADPLPTPSQEKSQTELPDEKIGKKRKRKDDGENAKPIKKIIGDGTRDPCLPYSWISPTTGIIISDLTMEMNRFRLIGPLSHSILTEAIKAASVHTVGEDTEETPHRWWIETCKKPDSVSLHCRQEAIFELLGGITSPAEIPAGTILGLTVGDPRINLPQKKSKALPNPEKCQDNEKVRQLLLEGVPVECTHSFIWNQDICKSVTENKISDQDLNRMRSELLVPGSQLILGPHESKIPILLIQQPGKVTGEDRLGWGSGWDVLLPKGWGMAFWIPFIYRGVRVGGLKESAVHSQYKRSPNVPGDFPDCPAGMLFAEEQAKNLLEKYKRRPPAKRPNYVKLGTLAPFCCPWEQLTQDWESRVQAYEEPSVASSPNGKESDLRRSEVPCAPMPKKTHQPSDEVGTSIEHPREAEEVMDAGCQESAGPERITDQEASENHVAATGSHLCVLRSRKLLKQLSAWCGPSSEDSRGGRRAPGRGQQGLTREACLSILGHFPRALVWVSLSLLSKGSPEPHTMICVPAKEDFLQLHEDWHYCGPQESKHSDPFRSKILKQKEKKKREKRQKPGRASSDGPAGEEPVAGQEALTLGLWSGPLPRVTLHCSRTLLGFVTQGDFSMAVGCGEALGFVSLTGLLDMLSSQPAAQRGLVLLRPPASLQYRFARIAIEV	binds	binds	binds
GGCX (protein, UniProt P38435 1-758) MAVSAGSARTSPSSDKVQKDKAELISGPRQDSRIGKLLGFEWTDLSSWRRLVTLLNRPTDPASLAVFRFLFGFLMVLDIPQERGLSSLDRKYLDGLDVCRFPLLDALRPLPLDWMYLVYTIMFLGALGMMLGLCYRISCVLFLLPYWYVFLLDKTSWNNHSYLYGLLAFQLTFMDANHYWSVDGLLNAHRRNAHVPLWNYAVLRGQIFIVYFIAGVKKLDADWVEGYSMEYLSRHWLFSPFKLLLSEELTSLLVVHWGGLLLDLSAGFLLFFDVSRSIGLFFVSYFHCMNSQLFSIGMFSYVMLASSPLFCSPEWPRKLVSYCPRRLQQLLPLKAAPQPSVSCVYKRSRGKSGQKPGLRHQLGAAFTLLYLLEQLFLPYSHFLTQGYNNWTNGLYGYSWDMMVHSRSHQHVKITYRDGRTGELGYLNPGVFTQSRRWKDHADMLKQYATCLSRLLPKYNVTEPQIYFDIWVSINDRFQQRIFDPRVDIVQAAWSPFQRTSWVQPLLMDLSPWRAKLQEIKSSLDNHTEVVFIADFPGLHLENFVSEDLGNTSIQLLQGEVTVELVAEQKNQTLREGEKMQLPAGEYHKVYTTSPSPSCYMYVYVNTTELALEQDLAYLQELKEKVENGSETGPLPPELQPLLEGEVKGGPEPTPLVQTFLRRQQRLQEIERRRNTPFHERFFRFLLRKLYVFRRSFLMTCISLRNLILGRPSLEQLAQEVTYANLRPFEAVGELNPSNTDSSHSNPPESNPDPVHSEF	binds	binds	binds
